Data: PubChem BioAssay AID540275 (National Center for Advancing Translational Sciences (NCATS), 2011)
The campaign covered roughly 320,000 compounds. About 620 (0.19%) were called active. Inconclusive means that the source gave no clear call. Such entries were picked first, then a sample of the others. Cut-off read from the data, not from the text of the source: active = activation above about 80%; inconclusive = between about 30% and that limit; inactive = weaker than that.
Throughout, for activation: 0% is about no effect.

Amino acid sequences for entries named in this document (tags omitted).
UniProt Q8NER1, whole entry, looked up: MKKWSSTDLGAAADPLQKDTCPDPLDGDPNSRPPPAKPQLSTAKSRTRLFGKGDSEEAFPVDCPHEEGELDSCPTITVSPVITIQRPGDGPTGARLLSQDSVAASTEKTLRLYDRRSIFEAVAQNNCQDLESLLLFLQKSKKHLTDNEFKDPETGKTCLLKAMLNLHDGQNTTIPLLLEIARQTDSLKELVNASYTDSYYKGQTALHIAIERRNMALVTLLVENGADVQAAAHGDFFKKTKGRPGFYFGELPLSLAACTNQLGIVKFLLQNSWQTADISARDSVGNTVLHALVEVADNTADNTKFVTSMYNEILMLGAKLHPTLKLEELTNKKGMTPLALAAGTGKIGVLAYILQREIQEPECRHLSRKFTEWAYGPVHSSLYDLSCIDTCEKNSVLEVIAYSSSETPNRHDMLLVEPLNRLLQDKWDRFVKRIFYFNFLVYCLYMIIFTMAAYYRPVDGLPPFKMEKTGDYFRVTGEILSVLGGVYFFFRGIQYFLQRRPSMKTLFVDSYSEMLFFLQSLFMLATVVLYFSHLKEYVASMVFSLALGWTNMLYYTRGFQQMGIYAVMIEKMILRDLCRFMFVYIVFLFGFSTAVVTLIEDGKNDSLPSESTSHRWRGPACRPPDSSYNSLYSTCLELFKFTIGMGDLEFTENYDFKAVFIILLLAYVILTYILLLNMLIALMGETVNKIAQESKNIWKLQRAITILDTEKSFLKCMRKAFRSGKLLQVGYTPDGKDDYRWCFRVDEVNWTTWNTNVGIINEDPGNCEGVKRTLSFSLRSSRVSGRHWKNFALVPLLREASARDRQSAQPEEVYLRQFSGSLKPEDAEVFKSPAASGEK

What follows are compounds tested against Transient receptor potential cation channel subfamily V member 1 (Homo sapiens) (UniProt Q8NER1) (assay: HTS Assay for Compounds that Act as Agonists of the Vanilloid Receptor 1). Conditions: TRPV1-expressing cells, Fluo-8 calcium influx, agonist mode; at 8.33 µM, active compounds read high.
Outline: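 Cells expressing TRPV1 were dye-loaded with Fluo-8 and read kinetically: 10 s baseline, 3 min after compound (agonist portion), then 2 min after EC20 capsaicin (allosteric enhancer portion). Calcium-bound dye fluorescence at 480/520 nm.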
In the case of `COc1ccc(CCNC(=O)COC(=O)c2cc(OC)c(OC)cc2OC)cc1OC`, the activation is reported as inactive: -0.954%.
`CC(NCC(=O)Nc1ccccc1C(=O)NC1CC1)c1cccc(C(F)(F)F)c1` (stereo not drawn) was tested, and the activation was inconclusive: 31.2%.
With `Cc1ccc(OCCCC(=O)Nc2ccc(N3CCOCC3)cc2)cc1` the activation was inconclusive: 72.3%.
For `C=CCn1c(SCC(=O)Nc2ccc(O)cc2)nc2sc(CC)cc2c1=O`, the activation was inconclusive: 49%.
For `Cc1ccc(-c2cc(C(=O)N3CCOCC3)c3cc(C)ccc3n2)cc1`, the activation was inconclusive: 52.4%.
With `CNC(=O)c1ccccc1NC(=O)c1ccco1` the activation was inactive: 8.42%.
In the case of `CCS(=O)(=O)NCC(c1ccco1)N1CCN(c2ccccc2F)CC1` (stereo not drawn), the activation is reported as inactive: 4.39%.
`Clc1cccc(N/N=C(\Cc2nc3ccccc3[nH]2)c2ccccc2)c1` was tested, and the activation was inconclusive: 34.1%.
With `CCCCn1nc(C(=O)Nc2nc3c(s2)CCCC3)c2ccccc2c1=O` the activation was inactive: 29.7%.
In the case of `O=C1C=C(c2ccc(Cl)c(C(F)(F)F)c2)C[C@@H](c2ccc(F)cc2)C1`, the activation is reported as inconclusive: 39.3%.
For `O=S(=O)(c1ccc(NCc2ccccc2)cc1)N1CCOCC1`, the activation was inactive: 6.4%.
`Cc1[nH]n(-c2ccc([N+](=O)[O-])cc2)c(=O)c1C=NCCN1CCN(C(=O)c2ccc(F)cc2)CC1` was tested, and the activation was inactive: 0.797%.
For `C1=C(CCNc2ncnc3nc[nH]c23)CCCC1`, the activation was inconclusive: 36.5%.
With `Cc1ccc(NC(=O)c2oc3ccccc3c2NC(=O)c2ccc3c(c2)OCO3)cc1` the activation was inconclusive: 46.4%.
With `Cc1ccc2nc(NC(=O)c3ccccc3F)sc2c1` the activation was inconclusive: 77.9%.
In the case of `O=C(Nc1ccccc1)N1CCN(c2ccccn2)CC1`, the activation is reported as inconclusive: 31%.
For `O=C(CSc1ccc(Cl)cc1)N1CCC(c2nc3ccccc3s2)CC1`, the activation was inconclusive: 65.6%.
For `COc1cccc(C(=O)NCCS(=O)(=O)NC(C)CCc2ccccc2)c1` (stereo not drawn), the activation was inconclusive: 30.6%.
With `CCNC(=S)N=Nc1c(O)[nH]c2ccc(C(C)C)cc12` the activation was inactive: -2.67%.
For `CCN(CC)CCCNC(=S)N1CCN(c2nc(-c3ccc(F)cc3)cs2)CC1`, the activation was inactive: 11.9%.
`COc1ccc(Nc2oc(-c3ccccc3Cl)nc2C#N)cc1` was tested, and the activation was inconclusive: 45.1%.
In the case of `CCn1c(Sc2nc(C)nc3scc(-c4cccs4)c23)n[nH]c1=O`, the activation is reported as inconclusive: 35.7%.
For `COc1cccc(CNC(=O)C2CC(=O)N(c3ccc4c(c3)OCCO4)C2)c1` (stereo not drawn), the activation was inactive: 20.9%.
`Cc1ccc(C23CC4CC(CC(C(=O)N5CCOCC5)(C4)C2)C3)cc1` was tested, and the activation was inconclusive: 49.8%.
`Cc1ccc(/C=C2\SC(N3CCCCC3)=NC2=O)cc1` was tested, and the activation was inconclusive: 75.2%.
With `CCC(C)Sc1ccc(-c2nc3ccc(C)cn3c2NCc2ccccc2)cc1OC` (stereo not drawn) the activation was active: 88.4%.
`O=C1c2ccccc2C(Nc2ccc3c(c2)OCO3)N1Cc1ccc2c(c1)OCO2` (stereo not drawn) was tested, and the activation was inconclusive: 65.3%.
For `CC(=O)c1cccc(NC(=O)C2CC(c3ccc(F)cc3)=NO2)c1` (stereo not drawn), the activation was inconclusive: 44%.
For `OC(COCc1ccc(Cl)cc1)CN1CCN(CC(O)COCc2ccc(Cl)cc2)CC1` (stereo not drawn), the activation was inactive: 4.29%.
In the case of `CC1CCN(S(=O)(=O)N2CCCC(C(=O)NCc3ccc(F)cc3)C2)CC1` (stereo not drawn), the activation is reported as inconclusive: 48.3%.
With `CCCN(CCC)C(=O)C1c2ccccc2Oc2ccccc21` the activation was inconclusive: 47.6%.
For `Cc1nc2c(=O)n(-c3cccc(C(F)(F)F)c3)nc(C)c2s1`, the activation was inactive: 2.37%.
With `COC(=O)c1ccc(SCC(=O)N2CCC(C)CC2)c([N+](=O)[O-])c1` the activation was inconclusive: 48.2%.
In the case of `O=C(NCC1CCCO1)c1cn(-c2ccccc2)nc1-c1ccccc1` (stereo not drawn), the activation is reported as inconclusive: 60.2%.
With `CCOc1ccc(NC(=O)c2ccccc2NC(=O)CN2CCCCCC2)cc1` the activation was inconclusive: 33.8%.
For `Cc1c(/C=N/NC(=O)CNc2ccccc2)c2ccccn2c1C(=O)c1ccc(Cl)cc1`, the activation was inactive: 0.0175%.
With `O=C(Nc1cccc(Cl)c1)c1ccccc1` the activation was inconclusive: 31.3%.
In the case of `Cc1cccc(-c2nc(CNC(=O)c3ccco3)cs2)c1`, the activation is reported as inconclusive: 33.9%.
With `O=C(NCc1cccnc1)C1CCC(c2ccc(Cl)cc2)CC1` (stereo not drawn) the activation was active: 115%.
For `COC(=O)c1ccc(NC(=S)NCCC2=CCCCC2)cc1`, the activation was inconclusive: 76%.
With `CCOc1ccc(NC(=O)Nc2cccnc2)cc1` the activation was inconclusive: 47.7%.
In the case of `CCOC(=O)c1c(S(=O)(=O)N2CCCC(C(=O)Nc3ccc(C)cn3)C2)c(C)n(C)c1C` (stereo not drawn), the activation is reported as inactive: -5.26%.
For `CC1CC(=O)C2=C(C1)Nc1ccccc1SC2c1ccc(F)cc1` (stereo not drawn), the activation was inconclusive: 51.7%.
For `COc1ccc(-c2nc(NC(=O)c3[nH]c(C)c(C(C)=O)c3C)sc2C)cc1`, the activation was inconclusive: 33%.
In the case of `O=C(NCc1cccnc1)c1nc(-c2ccc(C(F)(F)F)cc2)no1`, the activation is reported as inconclusive: 50.2%.
`Cc1cc2c(c(=O)n1-c1ccccc1)C1O[C@](c3ccsc3)(Cc3cc(C#N)ccc31)O2` was tested, and the activation was “inactive”.
`COc1cccc(N2CCN(C(=O)c3ccc(CS(=O)Cc4ccccc4Cl)o3)CC2)c1` (stereo not drawn) was tested, and the activation was inactive: -1.67%.
In the case of `CCOC(=O)C(C)Sc1nc2c([nH]c3ccccc32)c(=O)n1C` (stereo not drawn), the activation is reported as inconclusive: 37.5%.
In the case of `CCn1nc(NC(=O)c2ccco2)c2cc3cc(C)ccc3nc21`, the activation is reported as inconclusive: 44.8%.
`CCc1ccc(-c2cc(C)no2)cc1S(=O)(=O)N1CCOc2ccc(C)cc21` was tested, and the activation was inconclusive: 46%.
`S=C1Nc2ccccc2Sc2ccc(Cl)cc21` was tested, and the activation was inactive: 16.7%.
With `Cc1ccc2cc(NC(=O)c3ccccc3C)ccc2n1` the activation was inactive: -5.94%.
In the case of `Oc1cccc(/C=N/Nc2cccc3cccnc23)c1`, the activation is reported as inactive: 20.3%.
In the case of `CC(=O)c1cccc(NC(=S)NC(=O)Cc2ccccc2)c1`, the activation is reported as inconclusive: 60.4%.
In the case of `Cc1ccc(-c2nnc(SCC(=O)N3CCOCC3)nc2-c2ccc(C)cc2)cc1`, the activation is reported as inconclusive: 44.1%.
For `Cc1nnc(SCC(=O)N2CCN(c3ccccc3)CC2)n(N)c1=O`, the activation was inactive: 1.05%.
For `COc1ccc(CNC(=O)C[C@H]2C(=O)N(Cc3ccc(OC)cc3)C[C@@H]2Cc2ccccc2)cc1`, the activation was inconclusive: 39.1%.
In the case of `COc1cccc(C(=O)NC2CCN(C(=O)N3c4ccccc4Sc4ccccc43)CC2)c1`, the activation is reported as inconclusive: 68.5%.
